# PubChem BioAssay AID1224829, NIAID – 2016
# Assay: 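Genes needed for LPS-driven NF-kappaB p65 nuclear entry in mouse macrophages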 (follow-up of hits)
# System: mouse RAW264.7 G9 macrophage reporter cells
# Reagents: single siRNA against mouse genes, 100 nM
# Timing: 2 days of siRNA knock-down, then 40 min of LPS before fixing
# Conditions: LPS (Salmonella minnesota R595) at 10 ng/ml
# Detection: 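High-content images after 40 min LPS exposure; GFP-p65 nucleus to surrounding ring signal ratio, normalised to plate median and non-targeting control wells, expressed as z-score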
# Direction: p65 translocation z-score: higher = more nuclear NF-kappaB p65 after LPS
# Rule for the call: 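An siRNA is called active when the mean z-score of its two replicates is above 2 or below -2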
# Calls: active = changed p65 translocation (either direction); inactive = no clear change
# In all, the deposit lists about 3,800 reagents; shown is a random part of them. 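Calls cover raised and lowered translocation; gene median uses one vendor's three siRNAs; qiagen siRNAs acted more weakly than ambion siRNAs.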 Unmarked entries are inactive. The numbers tell different reagents against one gene apart. Further read-outs or replicates are left out here. No sequences are given here.
gene,siRNA no.,siRNA vendor or control pool,"p65 translocation z-score, replicate mean","p65 translocation z-score, replicate 1"
Prdm8 (PR domain containing 8),1,ambion single siRNA,-1.72,-1.4
Prdm8 (PR domain containing 8),2,ambion single siRNA,-1.78,-2.83
Prdm8 (PR domain containing 8),3,ambion single siRNA,1.52,2.43
Prdm8 (PR domain containing 8),4,qiagen single siRNA,2.39 (active),2.71
Prdm8 (PR domain containing 8),5,qiagen single siRNA,-1.51,-0.86
Prdm8 (PR domain containing 8),6,qiagen single siRNA,-4.33 (active),-4.33
Inppl1 (inositol polyphosphate phosphatase-like 1),1,ambion single siRNA,0.966,1.72
Inppl1 (inositol polyphosphate phosphatase-like 1),2,ambion single siRNA,0.648,0.0902
Inppl1 (inositol polyphosphate phosphatase-like 1),3,ambion single siRNA,-3.32 (active),-6.38
Inppl1 (inositol polyphosphate phosphatase-like 1),4,qiagen single siRNA,3.89 (active),2.7
Inppl1 (inositol polyphosphate phosphatase-like 1),5,qiagen single siRNA,0.461,0.333
Inppl1 (inositol polyphosphate phosphatase-like 1),6,qiagen single siRNA,0.108,0.108
Creb5 (cAMP responsive element binding protein 5),1,qiagen single siRNA,1.9,1.54
Creb5 (cAMP responsive element binding protein 5),2,qiagen single siRNA,-0.156,0.243
Creb5 (cAMP responsive element binding protein 5),3,qiagen single siRNA,-8.3 (active),-8.3
Rps6kc1 (ribosomal protein S6 kinase C1),1,ambion single siRNA,-0.717,-0.0401
Rps6kc1 (ribosomal protein S6 kinase C1),2,ambion single siRNA,1.22,0.53
Rps6kc1 (ribosomal protein S6 kinase C1),3,ambion single siRNA,1.46,2.66
Rps6kc1 (ribosomal protein S6 kinase C1),4,qiagen single siRNA,1.76,0.375
Rps6kc1 (ribosomal protein S6 kinase C1),5,qiagen single siRNA,-1.36,-2.58
Rps6kc1 (ribosomal protein S6 kinase C1),6,qiagen single siRNA,1.29,-0.485

Quoted from above (6 entries):
gene,siRNA no.,siRNA vendor or control pool,"p65 translocation z-score, replicate mean","p65 translocation z-score, replicate 1"
Creb5 (cAMP responsive element binding protein 5),3,qiagen single siRNA,-8.3 (active),-8.3
Rps6kc1 (ribosomal protein S6 kinase C1),1,ambion single siRNA,-0.717,-0.0401
Rps6kc1 (ribosomal protein S6 kinase C1),2,ambion single siRNA,1.22,0.53
Rps6kc1 (ribosomal protein S6 kinase C1),3,ambion single siRNA,1.46,2.66
Rps6kc1 (ribosomal protein S6 kinase C1),4,qiagen single siRNA,1.76,0.375
Rps6kc1 (ribosomal protein S6 kinase C1),5,qiagen single siRNA,-1.36,-2.58

The listing continues:
gene,siRNA no.,siRNA vendor or control pool,"p65 translocation z-score, replicate mean","p65 translocation z-score, replicate 1"
Cpeb1 (cytoplasmic polyadenylation element binding protein 1),1,ambion single siRNA,-2.98 (active),-3.92
Cpeb1 (cytoplasmic polyadenylation element binding protein 1),2,ambion single siRNA,-1.48,-0.674
Cpeb1 (cytoplasmic polyadenylation element binding protein 1),3,ambion single siRNA,-1.43,-0.708
Cpeb1 (cytoplasmic polyadenylation element binding protein 1),4,qiagen single siRNA,-0.997,-1.33
Cpeb1 (cytoplasmic polyadenylation element binding protein 1),5,qiagen single siRNA,0.0653,0.779
Cpeb1 (cytoplasmic polyadenylation element binding protein 1),6,qiagen single siRNA,-4.89 (active),-3.75
Zfp418 (zinc finger protein 418),1,ambion single siRNA,0.187,-0.508
Zfp418 (zinc finger protein 418),2,ambion single siRNA,-1.46,-0.32
Zfp418 (zinc finger protein 418),3,ambion single siRNA,-1.44,-1.16
Zfp418 (zinc finger protein 418),4,qiagen single siRNA,-0.972,-0.0495
Zfp418 (zinc finger protein 418),5,qiagen single siRNA,1.34,0.893
Zfp418 (zinc finger protein 418),6,qiagen single siRNA,1.68,1.9
Slc9a8,1,ambion single siRNA,-2.93 (active),-4.23
Slc9a8,2,ambion single siRNA,-6.58 (active),-7.57
Slc9a8,3,ambion single siRNA,-3.53 (active),-4.35
Slc9a8,4,qiagen single siRNA,-0.213,-0.291
Slc9a8,5,qiagen single siRNA,2.68 (active),2.62
Slc9a8,6,qiagen single siRNA,0.499,-0.813
